PubChem BioAssay AID1347423 (Functional Genomics Laboratory (NCATS/FGL), 2020)
The whole screen tested about 52,000 sequences, of which about 210 (0.4%) were called active.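 The calls were made as follows: active = gene whose silencing raises cell survival under the drug, median off-target-corrected z-score across its silencing RNAs 2 or more; inactive = the rest.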 This is one part of the list.

Test: Resistance to Poly (ADP-Ribose) Polymerase inhibitor: Gene Identification via Genome-wide siRNA Screen
Conditions: mouse BRCA2 R2336H ES cells, olaparib, CellTiter-Glo viability; hits give high values
Method in brief: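 Mouse BRCA2 R2336H ES cells were reverse-transfected with siRNA (20 nM final), treated at 48 h with 500 nM olaparib, and read by CellTiter-Glo after 72 h. Scores: MAD-based z per siRNA, median per gene, seed off-target correction.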

Sequence | z-score
GAACGGCUACAUCUGUUACTT against 9930021D14Rik | inactive: 0.0544
GGACACAGAUGGUUUGUAUTT against Chc1 | inactive: -0.192
GGCGGUUCAAAUGUCCUCATT against Fut2 | inactive: -0.209
CCUCAACCGGCAGUUCUUGTT against Uble1b | inactive: 0.309
GGCUCGAAGGAAAUGAGUUTT against Dppa3 | inactive: -1.19
GGACAUGCAGCAAAUCCAUTT against Ninj1 | inactive: 1.44
GGUGACAAACAAAAACAAATT against Zdhhc14 | inactive: 0.855
GGGUCUUGUGAGAAAGUAUTT against Fads1 | inactive: 0.418
GGUUUGAGAAUUUGACUUCTT against BC020025 | inactive: 0.265
GGAACAGCAGCACUCAGACTT against 6030419C18Rik | inactive: -0.465
GGGAGUAGAUUCCAUUCCATT against Rnpep | inactive: 0.61
CCUACUACACCACUUGGGUTT against Dpm2 | inactive: 0.352
GGAGAACGGCUACAACACATT against Fgf22 | inactive: 0.343
GGUAUUCUUAGCACACAUGTT against V1re5 | inactive: -0.509
CGAGUGACAGCUAAGUAUGTT against AW539964 | inactive: -0.383
GCAACAACAACAUUGCCUATT against 4930488E11Rik | inactive: -0.966
GGAAUUUGAAGACACAGAATT against Arl2bp | inactive: -0.673
CCAACUCAUUGGAUCUUGCTT against 0610031J06Rik | inactive: 0.394
GGCAGUAGAACAGAUCAGATT against Zfp162 | inactive: -1.83
GGCUCUGAUGAAUACAACATT against 2400002F02Rik | inactive: -0.439
GCUAAGCACAAUGUGUACATT against 2310069P03Rik | inactive: -2.07
GCUUAGAACCCUUUUACAATT against Anp32a | inactive: 0.888

Sequence | z-score
GGAAGAGAGACUCAGCUCUTT against Galp | inactive: 0.852
GGUCUGCUGUUCAAAAUCATT against 4933417C16Rik | inactive: -0.0551
CCAUUAAGCAGCAAUAUUUTT against Pcdhga11 | inactive: -1.44
GGUCUUCACACAACGAACUTT against Mxd4 | inactive: -0.659
GGAUGCUAAUUUAUGUGCUTT against 2810413I22Rik | inactive: 0.143
GGAAGAAGGGUUUCAACGGTT against Mef2d | inactive: 2.26
GCAACUGUUCUACGUCUGATT against Tmprss2 | inactive: -1.33
GGGUCAAAGGUCAAGGCUCTT against Gpr20 | inactive: 0.17
GCUUUGGACGAACGAAUGCTT against Rassf6 | inactive: -0.296
GGAAACAGUCCAGAACGAGTT against 2900016D05Rik | inactive: 0.445
GGUGGAUCUGAAUAAGUGCTT against Sdhb | inactive: -0.33
GGAGACCUUCUGUUUUCUGTT against Ptcd1 | inactive: -0.019
GGCUGUGAGAUAGAUCUAATT against E130112L23Rik | inactive: -0.595
GGCACGUUCUCGUAUAUCATT against Gpr172b | inactive: 0.0317
UGCCACUGCCAAAAAAUAATT against Tex18 | inactive: -1.76
GGGAUGUAGUAAGCAAAGUTT against Gpc4 | inactive: 0.712
CGCAUUUUAGUUCAUCUGUTT against 5730467H21Rik | inactive: 0.408
CCAUAACCCUUAGGAAAAGTT against C030014K22Rik | inactive: 0.877
GGGACUGGAAUCAAUGAACTT against Rgn | inactive: 0.374
GGAGAAGAAGGUUCUUGCCTT against Hoxb13 | inactive: 0.183
GCUAAUCUUUCCUCUGCCCTT against 5230400G24Rik | inactive: 0.388
GCGAUUGAAAUGAGAGCUCTT against Hgd | inactive: -1.43

Sequence | z-score
GGGUAUUAAAACCUCACUUTT against 4931406H21Rik | inactive: -2.24
GCCUUGGAUAAACCAGACGTT against A930031D07Rik | inactive: 0.368
GCGUGUGGAAGAAAAAGAATT against Nedd8 | inactive: -3.02
GGGUGAGUACUCUUUAAAUTT against Nudt4 | inactive: 0.47
CCUAUAAUGGAGAUGAUACTT against 5830435K17Rik | inactive: 0.0953
GGCUAACCUGAGCAAACAGTT against Plvap | inactive: 1.4
GCACACACGUAGAAGCGGATT against Erdr1 | inactive: -0.823
GAACUCUUCCAGUGGAAGUTT against 2410015N17Rik | inactive: -0.11
GGCACUCAGGAACUUCCUGTT against 1810022C23Rik | inactive: -1.04
GGAAGCAACAACAUAAACUTT against 4933440M02Rik | inactive: -0.217
GGAGCUGUCACACCAUGAATT against Twsg1 | inactive: 1.38
GGAAUCGGUGUAUUCGUUUTT against Sectm1 | inactive: -0.973
GGCAUGGAGAGGAACUUCUTT against Sn | inactive: 1.29
GAAUUUGCCAUUUUCAGUGTT against Cox7c | inactive: -0.476
GGUCAUAGGUACGUAUCCGTT against 6430529G09Rik | inactive: -0.0313
GGAAAAAAUAAUGGUGACATT against Msr2 | inactive: -2.53
GCCUGUUCCGCCAUUCAUGTT against Fliih | inactive: -1.13
GGACAAACUACUUUUGUACTT against Tmprss3 | inactive: 1.11
GGUAAAAAACUGUCCUUCATT against 2810426N06Rik | inactive: -0.272
GGAAAAGUUGAGGUUAUCATT against Ggt1 | inactive: 0.582
GGUGUUAAUCCAGUUCAAUTT against Gm1805 | inactive: 1.99

Exported tab-delimited: entries from further up
Sequence	z-score
GGCGGUUCAAAUGUCCUCATT against Fut2	inactive: -0.209
GGCAGUAGAACAGAUCAGATT against Zfp162	inactive: -1.83
GGAAUCGGUGUAUUCGUUUTT against Sectm1	inactive: -0.973
